Data taken from patent US20080219971A1.
No constants are given. Whether binding was seen depends on the method and setting. Some entries that bind do so weakly or less than the wild type. Tags and fused reporters may be left off the sequences shown.

The chains behind the UniProt entries cited, without tags or fusion partners. Residues count along the entry.
UniProt O43157, residues 20-2135: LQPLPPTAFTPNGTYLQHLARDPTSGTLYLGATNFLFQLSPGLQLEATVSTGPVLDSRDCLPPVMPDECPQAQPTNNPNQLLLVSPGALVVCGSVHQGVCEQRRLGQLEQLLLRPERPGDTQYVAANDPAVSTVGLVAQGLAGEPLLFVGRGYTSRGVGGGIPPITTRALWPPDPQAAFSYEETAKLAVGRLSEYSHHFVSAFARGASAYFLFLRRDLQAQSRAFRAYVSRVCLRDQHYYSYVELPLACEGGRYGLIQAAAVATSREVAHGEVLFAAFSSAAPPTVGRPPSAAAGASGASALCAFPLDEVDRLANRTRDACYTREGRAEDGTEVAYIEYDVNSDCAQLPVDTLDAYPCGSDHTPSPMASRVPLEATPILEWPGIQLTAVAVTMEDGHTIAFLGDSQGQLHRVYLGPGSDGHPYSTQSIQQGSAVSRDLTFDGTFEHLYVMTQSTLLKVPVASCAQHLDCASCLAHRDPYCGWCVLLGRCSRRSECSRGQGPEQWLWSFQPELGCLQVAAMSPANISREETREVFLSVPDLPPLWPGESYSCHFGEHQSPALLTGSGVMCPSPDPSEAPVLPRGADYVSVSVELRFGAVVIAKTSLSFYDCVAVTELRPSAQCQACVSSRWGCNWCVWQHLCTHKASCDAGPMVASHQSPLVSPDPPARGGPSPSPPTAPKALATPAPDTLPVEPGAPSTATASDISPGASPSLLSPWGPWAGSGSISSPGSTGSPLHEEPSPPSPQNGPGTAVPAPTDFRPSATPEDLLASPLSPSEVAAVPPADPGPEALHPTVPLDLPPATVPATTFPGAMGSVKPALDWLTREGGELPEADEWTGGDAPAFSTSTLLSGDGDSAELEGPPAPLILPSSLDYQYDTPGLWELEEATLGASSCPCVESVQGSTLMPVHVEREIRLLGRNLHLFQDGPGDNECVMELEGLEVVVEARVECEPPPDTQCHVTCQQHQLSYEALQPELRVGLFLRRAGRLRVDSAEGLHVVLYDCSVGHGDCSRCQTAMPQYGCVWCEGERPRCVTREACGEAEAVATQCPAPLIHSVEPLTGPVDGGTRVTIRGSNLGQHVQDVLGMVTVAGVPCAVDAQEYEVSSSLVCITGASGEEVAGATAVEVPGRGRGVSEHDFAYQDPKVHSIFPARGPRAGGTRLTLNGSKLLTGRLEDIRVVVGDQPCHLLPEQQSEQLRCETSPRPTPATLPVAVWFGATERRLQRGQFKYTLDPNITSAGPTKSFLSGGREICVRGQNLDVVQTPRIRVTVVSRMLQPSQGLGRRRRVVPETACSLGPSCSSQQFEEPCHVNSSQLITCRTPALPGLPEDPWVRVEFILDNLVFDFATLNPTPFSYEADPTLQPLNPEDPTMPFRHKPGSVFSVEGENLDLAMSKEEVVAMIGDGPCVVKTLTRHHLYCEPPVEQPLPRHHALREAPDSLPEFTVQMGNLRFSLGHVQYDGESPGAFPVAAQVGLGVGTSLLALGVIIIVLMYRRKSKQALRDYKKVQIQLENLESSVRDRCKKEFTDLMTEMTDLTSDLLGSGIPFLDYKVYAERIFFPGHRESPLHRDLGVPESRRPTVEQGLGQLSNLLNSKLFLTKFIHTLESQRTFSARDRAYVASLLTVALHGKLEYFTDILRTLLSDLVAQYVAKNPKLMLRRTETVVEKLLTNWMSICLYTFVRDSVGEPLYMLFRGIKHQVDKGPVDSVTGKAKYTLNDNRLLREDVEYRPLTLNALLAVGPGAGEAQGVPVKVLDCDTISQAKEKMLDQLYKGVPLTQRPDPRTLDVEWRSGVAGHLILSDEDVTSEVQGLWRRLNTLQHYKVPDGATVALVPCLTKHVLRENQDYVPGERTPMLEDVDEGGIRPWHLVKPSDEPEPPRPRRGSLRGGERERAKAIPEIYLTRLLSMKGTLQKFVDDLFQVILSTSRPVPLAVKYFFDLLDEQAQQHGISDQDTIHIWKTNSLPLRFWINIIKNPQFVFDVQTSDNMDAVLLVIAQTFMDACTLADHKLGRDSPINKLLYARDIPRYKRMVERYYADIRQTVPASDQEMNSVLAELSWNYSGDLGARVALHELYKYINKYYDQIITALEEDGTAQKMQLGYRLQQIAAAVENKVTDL

Target: Plexin B1 (UniProt O43157)
Assay: flow cytometry on 293/Plexin B1 cells; bound His-tagged murine CD100 detected with rabbit anti-His and streptavidin-APC, FL4-H

binding: binds
B1: mouse CD100-His (ligand)
chain: FAPVPRLTWEHGEVGLVQFHKPGIFNYSALLMSEDKDTLYVGAREAVFAVNALNISEKQHEVYWKVSEDKKSKCAEKGKSKQTECLNYIRVLQPLSSTSLYVCGTNAFQPTCDHLNLTSFKFLGKSEDGKGRCPFDPAHSYTSVMVGGELYSGTSYNFLGSEPIISRNSSHSPLRTEYAIPWLNEPSFVFADVIQKSPDGPEGEDDKVYFFFTEVSVEYEFVFKLMIPRVARVCKGDQGGLRTLQKKWTSFLKARLICSKPDSGLVFNILQDVFVLRAPGLKEPVFYAVFTPQLNNVGLSAVCAYTLATVEAVFSRGKYMQSATVEQSHTKWVRYNGPVPTPRPGACIDSEARAANYTSSLNLPDKTLQFVKDHPLMDDSVTPIDNRPKLIKKDVNYTQIVVDRTQALDGTFYDVMFISTDRGALHKAVILTKEVHVIEETQLFRDSEPVLTLLLSSKKGRKFVYAGSNSGVVQAPLAFCEKHGSCEDCVLARDPYCAWSPAIKACVTLHQEEASSRGWIQDMSGDTSSCLDKSKESFNQHFFKHGGTAELKCFQKSNLARVVWKFQNGELKAASPKYGFVGRKHLLIFNLSDGDSGVYQCLSEERVRNKTVSQLLAKHVLEVKMVPRTPPSPTSEDAQTEGSKITSKMPVASTQGSSPPTPALWATSPRAATLPPKSSSGTSCEPKMVINTVPQLHSEKTVYLKSSDNRHHHHHH
